Results from PMC6867699.
These are yes or no findings as the source states them, for the method shown. In cells and extracts the contact can be indirect. Some results given as binding are weak or reduced against the parent protein; the word gives no strength.

By UniProt entry, the sequences of proteins in these tests, tags left out.
UniProt P40763: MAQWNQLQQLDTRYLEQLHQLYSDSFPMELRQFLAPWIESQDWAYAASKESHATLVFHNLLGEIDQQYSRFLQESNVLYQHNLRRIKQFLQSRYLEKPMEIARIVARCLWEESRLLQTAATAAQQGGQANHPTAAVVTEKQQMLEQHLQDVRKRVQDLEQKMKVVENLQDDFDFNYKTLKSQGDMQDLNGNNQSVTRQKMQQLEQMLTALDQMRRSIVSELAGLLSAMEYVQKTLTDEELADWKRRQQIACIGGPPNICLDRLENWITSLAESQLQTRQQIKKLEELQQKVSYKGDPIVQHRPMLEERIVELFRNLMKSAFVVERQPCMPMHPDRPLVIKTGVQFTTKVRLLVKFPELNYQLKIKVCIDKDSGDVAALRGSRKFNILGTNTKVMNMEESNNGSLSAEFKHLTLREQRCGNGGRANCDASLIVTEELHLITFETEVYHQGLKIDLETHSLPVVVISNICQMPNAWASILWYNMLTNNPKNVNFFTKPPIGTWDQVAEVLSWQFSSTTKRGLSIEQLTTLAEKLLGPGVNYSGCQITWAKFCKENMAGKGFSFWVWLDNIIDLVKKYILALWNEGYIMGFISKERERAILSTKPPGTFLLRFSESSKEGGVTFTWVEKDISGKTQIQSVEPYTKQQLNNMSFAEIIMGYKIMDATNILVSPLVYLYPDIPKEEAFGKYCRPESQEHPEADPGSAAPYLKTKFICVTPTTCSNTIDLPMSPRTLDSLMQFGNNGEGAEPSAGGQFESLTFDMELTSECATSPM

Target: signal transducer and activator of transcription 3 (STAT3) (human (endogenous in SKBR3)) (UniProt P40763)
Experiment: co-IP; SKBR3 cell line, nucleus; EGFR and STAT3 were immunoprecipitated and western blot performed for HER2

binding: binds
Substance: Human epidermal growth factor receptor 2 (HER2) (from UniProt P04626 23-1255)
